Results taken from patent US20180086789A1 (VALLAURIX PTE. LTD., priority 2015, published 2018).

Assay: peptide synthesis
Conditions: whole synthesis, HPLC

Ac-[Nle]EH[dF][hArg]W-NH2
purity (crude or final not stated): 100%

Non-standard residues stand in square brackets, D forms with d. hArg = N=C(N)NCCCC[C@H](N)C(=O)O; Nle = CCCC[C@H](N)C(=O)O
